No constants are given. Whether binding was seen depends on the method and setting. Binding seen in cells or lysates may run through a third protein. These calls come from enrichment with a bait or labelling near it, and not all partners need be listed.

By UniProt entry, the sequences of proteins in these tests, tags left out.
UniProt Q8NFA0: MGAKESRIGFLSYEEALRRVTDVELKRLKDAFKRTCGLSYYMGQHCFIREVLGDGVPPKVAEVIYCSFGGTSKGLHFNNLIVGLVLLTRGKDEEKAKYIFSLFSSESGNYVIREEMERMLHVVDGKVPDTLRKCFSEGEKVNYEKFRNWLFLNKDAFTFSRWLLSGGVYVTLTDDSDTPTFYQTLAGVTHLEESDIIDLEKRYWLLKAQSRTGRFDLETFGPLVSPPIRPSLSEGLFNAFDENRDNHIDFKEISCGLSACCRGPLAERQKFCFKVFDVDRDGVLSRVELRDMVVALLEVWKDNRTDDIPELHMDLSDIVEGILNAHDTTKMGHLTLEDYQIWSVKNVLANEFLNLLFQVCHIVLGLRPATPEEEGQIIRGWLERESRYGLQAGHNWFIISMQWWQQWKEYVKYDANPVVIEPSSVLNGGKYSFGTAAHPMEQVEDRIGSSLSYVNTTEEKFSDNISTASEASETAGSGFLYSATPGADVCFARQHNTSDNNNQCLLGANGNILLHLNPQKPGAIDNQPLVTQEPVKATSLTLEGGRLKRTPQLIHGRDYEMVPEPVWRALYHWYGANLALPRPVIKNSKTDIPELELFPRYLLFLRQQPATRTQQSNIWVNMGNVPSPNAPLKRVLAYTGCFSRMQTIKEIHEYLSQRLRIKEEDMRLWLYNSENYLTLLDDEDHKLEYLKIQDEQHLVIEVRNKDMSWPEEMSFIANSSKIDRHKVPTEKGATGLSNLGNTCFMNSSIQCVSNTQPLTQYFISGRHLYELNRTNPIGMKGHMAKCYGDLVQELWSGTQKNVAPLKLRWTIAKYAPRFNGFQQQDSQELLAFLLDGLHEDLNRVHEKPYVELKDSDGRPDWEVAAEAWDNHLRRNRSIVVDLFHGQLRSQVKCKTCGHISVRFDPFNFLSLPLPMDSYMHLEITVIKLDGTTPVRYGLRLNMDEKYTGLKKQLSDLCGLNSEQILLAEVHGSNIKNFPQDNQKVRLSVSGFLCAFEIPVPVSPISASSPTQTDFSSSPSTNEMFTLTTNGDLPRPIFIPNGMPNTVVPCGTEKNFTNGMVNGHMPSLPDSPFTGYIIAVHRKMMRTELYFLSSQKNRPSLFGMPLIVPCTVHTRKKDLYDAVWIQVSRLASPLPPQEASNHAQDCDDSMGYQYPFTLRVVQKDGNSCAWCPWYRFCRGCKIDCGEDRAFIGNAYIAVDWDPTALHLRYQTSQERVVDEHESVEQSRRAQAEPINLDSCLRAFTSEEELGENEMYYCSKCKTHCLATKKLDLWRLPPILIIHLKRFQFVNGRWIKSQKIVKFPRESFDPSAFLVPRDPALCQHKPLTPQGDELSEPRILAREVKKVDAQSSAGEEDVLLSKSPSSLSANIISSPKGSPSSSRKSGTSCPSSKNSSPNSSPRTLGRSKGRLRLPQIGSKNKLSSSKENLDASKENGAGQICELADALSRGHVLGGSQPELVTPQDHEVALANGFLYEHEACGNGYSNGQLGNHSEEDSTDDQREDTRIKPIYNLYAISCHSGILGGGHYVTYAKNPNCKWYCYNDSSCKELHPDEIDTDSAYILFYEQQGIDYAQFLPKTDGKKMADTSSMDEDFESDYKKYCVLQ
UniProt O95817: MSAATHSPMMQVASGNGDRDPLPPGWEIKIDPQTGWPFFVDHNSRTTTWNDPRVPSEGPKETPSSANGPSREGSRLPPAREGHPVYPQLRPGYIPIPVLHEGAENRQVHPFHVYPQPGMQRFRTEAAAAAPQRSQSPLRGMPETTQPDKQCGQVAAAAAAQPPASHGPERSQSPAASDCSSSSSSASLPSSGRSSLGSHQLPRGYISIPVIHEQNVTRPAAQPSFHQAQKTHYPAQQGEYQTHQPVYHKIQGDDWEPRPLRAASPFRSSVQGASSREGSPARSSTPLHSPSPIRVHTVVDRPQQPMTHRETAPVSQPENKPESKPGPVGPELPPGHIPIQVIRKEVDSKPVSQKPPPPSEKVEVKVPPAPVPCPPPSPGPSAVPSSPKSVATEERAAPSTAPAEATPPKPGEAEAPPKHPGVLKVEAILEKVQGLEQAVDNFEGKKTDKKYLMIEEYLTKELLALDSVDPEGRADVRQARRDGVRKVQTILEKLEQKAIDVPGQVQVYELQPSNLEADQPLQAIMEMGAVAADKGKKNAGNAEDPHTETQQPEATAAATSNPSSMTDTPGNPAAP

Here are results for one substance from PMC11271578.

This experiment addresses Myc-tagged USP32 (ubiquitin-specific peptidase 32) (human) (UniProt Q8NFA0). The experiment in a line: affinity purification with mass spectrometry; H1299 cells transfected with Myc vector or Myc-USP32 for 48 h; USP32-binding proteins immunoprecipitated with anti-Myc antibody, separated on a gel, Coomassie stained, a framed band analysed by mass spectrometry.

Regarding “Bcl2-associated athanogene 3 (BAG3), endogenous (from UniProt O95817 1-575)”, the binding result is “binds”.
